Experimental data reported in US20100010082A1, “FORMULATIONS FOR TREATING EYE DISORDERS” (Aspreva International Ltd., priority 2008, published 2010).
At least one structure is not confirmed: it was looked up by name or label, or the drawing left a doubt.

What was measured:
[1] = system: Scopolamine Induced Dry Eye in C57BL/6 Mice; experiment: Scopolamine induced dry eye model; assay type: in vivo, Mus musculus; conditions: histopathology analysis vs. negative controls
Procedure: This dry eye model was based on that described in De Paiva et al., 2006, Investigative Opthalmology & Visual Science 47(7):2847-2856, incorporated herein by reference. The study consisted of seven groups of 10 female C57BL/6 mice each. Starting on Day 0, mice of Groups 1-6 were treated four times-daily (QID) with topical bilateral ocular (OU) administration of control or test articles at intervals of at least two hours. […] Mice in Group 7 served as untreated controls. On Day 3, scopolamine patches were placed on the tails of the mice and replaced every other day (Q2D) thereafter. From Days 3-12, mice were maintained in an environment with high-volume air draft (see Environmental stress section, below). […]
For each day of administration, mice were briefly restrained. […] Following patch application, animals were monitored for any adverse reactions, including the condition of the tail and Vetwrap®. […]
Slit Lamp Corneal Examinations. Both eyes of each animal were evaluated via a slit lamp ophthalmic examination using topically-applied fluorescein. Fluorescein dye was used to examine the surface of the cornea and scored.
Pathology. […] A board-certified veterinary pathologist evaluated slides via light microscopy. […]
Eyes were serially sectioned and examined. The representative corneas were scored based upon a 0-4 scale, with 0 being normal, 1 being minimal, 2 being mild, 3 being moderate, and 4 being severe. […]

[2] = system: Con-A-induced dry eye in NZW rabbits; experiment: Con A induced dry eye model, Tear Break-up Test (TBUT); assay type: in vivo, Oryctolagus cuniculus; conditions: Days 14 through 17
[3] = system: Bovine Ocular Melanin Induced Uveitis in Lewis Rats; conditions: P<0.05; 2% NaMPA late (Days 28/29), dexamethasone and parenteral cyclosporine early and late

C[C@@H]1C[C@H]2[C@@H]3CCC4=CC(=O)C=C[C@]4(C)[C@@]3(F)[C@@H](O)C[C@]2(C)[C@@]1(O)C(=O)CO [dexamethasone]
effect on corneal injury / histopathology (in words) [1]: reduced injury to the cornea | TBUT values vs. the Vehicle group (in words) [2]: significantly increased | effect on ocular scores for hyperemia and corneal opacity vs Vehicle control (in words) [3]: statistically significant reduction
